Assay results taken from PMC8115694, “Distinct axial and lateral interactions within homologous filaments dictate the signaling specificity and order of the AIM2-ASC inflammasome” (Nature Communications, 2021).
Results are given in words; binding and its absence hold for the method and conditions named.

Molecular target: N73L-AIM2^FL (human) (UniProt O14862)
Experiment: negative-stain EM (nsEM); 100 nM AIM2^FL (cleaved by TEVp) with 150 nM linear plasmid dsDNA (~5 kbp); filament formation on dsDNA; both purified

B1: N73L-AIM2^FL (protein, UniProt O14862 1-343)
chain: MESKYKEILLLTGLDNITDEELDRFKFFLSDEFNIATGKLHTANRIQVATLMIQNAGAVSAVMKTIRIFQKLLYMLLAKRLQEEKEKVDKQYKSVTKPKPLSQAEMSPAASAAIRNDVAKQRAAPKVSPHVKPEQKQMVAQQESIREGFQKRCLPVMVLKAKKPFTFETQEGKQEMFHATVATEKEFFFVKVFNTLLKDKFIPKRIIIIARYYRHSGFLEVNSASRVLDAESDQKVNVPLNIIRKAGETPKINTLQTQPLGTIVNGLFVVQKVTEKKKNILFDLSDNTGKMEVLGVRNEDTMKCKEGDKVRLTFFTLSKNGEKLQLTSGVHSTIKVIKAKKKT
- binding: no binding
